Measurements reported in the supplement of paper PMC10849652.
The other results are listed elsewhere or left out.

By UniProt entry, the sequences of proteins in these tests, tags left out. Where a name states a change or a piece, a line headed by the entry shows the natural chain unless it says otherwise.
UniProt Q92688: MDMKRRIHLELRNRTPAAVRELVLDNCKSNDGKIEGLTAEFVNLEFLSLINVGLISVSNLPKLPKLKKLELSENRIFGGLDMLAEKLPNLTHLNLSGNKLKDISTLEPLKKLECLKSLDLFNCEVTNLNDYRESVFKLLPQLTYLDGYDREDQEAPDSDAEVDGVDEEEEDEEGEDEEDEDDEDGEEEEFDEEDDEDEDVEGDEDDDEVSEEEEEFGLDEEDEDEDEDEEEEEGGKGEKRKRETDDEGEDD
UniProt Q92974: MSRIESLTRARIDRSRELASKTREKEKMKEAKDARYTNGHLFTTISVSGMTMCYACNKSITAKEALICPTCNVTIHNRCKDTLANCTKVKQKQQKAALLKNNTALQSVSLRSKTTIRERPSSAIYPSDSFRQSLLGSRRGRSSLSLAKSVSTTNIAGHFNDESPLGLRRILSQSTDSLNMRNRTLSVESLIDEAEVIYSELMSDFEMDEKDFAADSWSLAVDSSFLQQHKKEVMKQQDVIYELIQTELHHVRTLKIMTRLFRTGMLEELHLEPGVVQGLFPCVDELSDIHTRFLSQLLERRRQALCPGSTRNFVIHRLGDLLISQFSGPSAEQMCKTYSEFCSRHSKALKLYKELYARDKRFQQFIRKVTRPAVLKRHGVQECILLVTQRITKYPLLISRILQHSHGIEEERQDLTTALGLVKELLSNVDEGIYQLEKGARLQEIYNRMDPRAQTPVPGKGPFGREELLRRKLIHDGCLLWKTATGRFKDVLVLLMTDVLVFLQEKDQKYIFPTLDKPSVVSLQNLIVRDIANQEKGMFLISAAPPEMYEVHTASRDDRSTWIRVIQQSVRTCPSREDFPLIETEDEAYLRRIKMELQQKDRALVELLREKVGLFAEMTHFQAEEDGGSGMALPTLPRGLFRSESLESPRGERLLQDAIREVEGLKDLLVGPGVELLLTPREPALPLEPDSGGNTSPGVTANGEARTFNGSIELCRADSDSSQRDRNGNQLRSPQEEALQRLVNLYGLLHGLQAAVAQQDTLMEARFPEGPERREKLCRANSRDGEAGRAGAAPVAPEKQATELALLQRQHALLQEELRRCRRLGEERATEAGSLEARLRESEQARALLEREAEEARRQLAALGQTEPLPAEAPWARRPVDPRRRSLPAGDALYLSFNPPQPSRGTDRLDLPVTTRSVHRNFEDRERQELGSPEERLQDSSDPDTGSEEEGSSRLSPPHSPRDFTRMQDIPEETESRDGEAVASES
UniProt Q8IV38: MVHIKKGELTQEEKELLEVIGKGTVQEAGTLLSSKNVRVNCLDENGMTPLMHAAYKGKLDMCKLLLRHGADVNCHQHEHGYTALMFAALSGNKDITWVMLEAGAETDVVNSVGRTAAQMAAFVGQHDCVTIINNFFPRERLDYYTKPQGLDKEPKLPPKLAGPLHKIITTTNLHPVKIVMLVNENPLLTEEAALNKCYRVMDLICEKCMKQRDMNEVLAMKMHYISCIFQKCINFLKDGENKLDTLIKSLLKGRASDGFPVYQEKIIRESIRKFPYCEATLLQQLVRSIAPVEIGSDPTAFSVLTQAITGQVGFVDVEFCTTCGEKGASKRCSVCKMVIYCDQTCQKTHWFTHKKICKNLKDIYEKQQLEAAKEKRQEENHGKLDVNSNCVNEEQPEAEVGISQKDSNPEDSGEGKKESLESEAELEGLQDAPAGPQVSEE
UniProt Q9BXS5: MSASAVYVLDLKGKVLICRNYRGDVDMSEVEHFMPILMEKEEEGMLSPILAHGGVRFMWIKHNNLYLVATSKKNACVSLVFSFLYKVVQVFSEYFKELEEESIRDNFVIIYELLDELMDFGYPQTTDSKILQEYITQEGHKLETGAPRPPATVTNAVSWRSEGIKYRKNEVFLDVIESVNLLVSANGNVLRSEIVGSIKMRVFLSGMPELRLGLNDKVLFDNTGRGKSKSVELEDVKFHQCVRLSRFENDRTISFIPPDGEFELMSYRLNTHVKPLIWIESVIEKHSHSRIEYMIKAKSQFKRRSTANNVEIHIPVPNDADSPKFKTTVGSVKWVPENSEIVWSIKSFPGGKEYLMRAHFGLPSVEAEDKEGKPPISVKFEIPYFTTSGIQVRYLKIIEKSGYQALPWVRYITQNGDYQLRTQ
UniProt P39687: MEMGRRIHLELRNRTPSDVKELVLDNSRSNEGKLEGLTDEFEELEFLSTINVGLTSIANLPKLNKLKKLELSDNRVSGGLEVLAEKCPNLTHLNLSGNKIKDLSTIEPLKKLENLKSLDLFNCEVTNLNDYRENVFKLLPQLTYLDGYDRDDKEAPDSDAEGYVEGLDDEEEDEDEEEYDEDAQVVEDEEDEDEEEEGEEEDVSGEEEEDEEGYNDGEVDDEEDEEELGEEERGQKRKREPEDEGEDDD
UniProt Q92888: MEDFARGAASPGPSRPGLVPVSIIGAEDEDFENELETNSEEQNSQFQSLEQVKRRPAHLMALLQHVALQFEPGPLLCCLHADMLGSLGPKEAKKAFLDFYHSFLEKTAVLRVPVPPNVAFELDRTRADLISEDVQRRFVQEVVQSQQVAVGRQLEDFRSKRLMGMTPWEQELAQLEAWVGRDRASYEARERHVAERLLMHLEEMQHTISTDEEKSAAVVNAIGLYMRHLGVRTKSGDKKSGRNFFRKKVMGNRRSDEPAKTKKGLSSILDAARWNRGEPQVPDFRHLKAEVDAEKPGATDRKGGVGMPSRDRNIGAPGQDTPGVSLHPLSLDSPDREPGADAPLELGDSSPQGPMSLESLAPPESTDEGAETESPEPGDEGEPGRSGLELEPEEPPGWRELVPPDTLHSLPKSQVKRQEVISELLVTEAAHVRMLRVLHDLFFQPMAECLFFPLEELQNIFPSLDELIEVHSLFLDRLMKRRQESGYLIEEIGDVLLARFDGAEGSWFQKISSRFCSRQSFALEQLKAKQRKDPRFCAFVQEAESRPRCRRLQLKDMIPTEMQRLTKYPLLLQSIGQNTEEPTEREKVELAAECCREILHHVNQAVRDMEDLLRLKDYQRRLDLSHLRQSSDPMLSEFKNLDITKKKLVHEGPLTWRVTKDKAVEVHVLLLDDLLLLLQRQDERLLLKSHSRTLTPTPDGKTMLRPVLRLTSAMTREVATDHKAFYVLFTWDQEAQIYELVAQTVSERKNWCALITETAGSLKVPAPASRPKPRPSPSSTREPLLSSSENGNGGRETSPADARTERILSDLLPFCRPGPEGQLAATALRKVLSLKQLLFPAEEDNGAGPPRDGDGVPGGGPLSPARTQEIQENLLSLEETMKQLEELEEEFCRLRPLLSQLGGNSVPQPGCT
UniProt P05067, whole entry, looked up: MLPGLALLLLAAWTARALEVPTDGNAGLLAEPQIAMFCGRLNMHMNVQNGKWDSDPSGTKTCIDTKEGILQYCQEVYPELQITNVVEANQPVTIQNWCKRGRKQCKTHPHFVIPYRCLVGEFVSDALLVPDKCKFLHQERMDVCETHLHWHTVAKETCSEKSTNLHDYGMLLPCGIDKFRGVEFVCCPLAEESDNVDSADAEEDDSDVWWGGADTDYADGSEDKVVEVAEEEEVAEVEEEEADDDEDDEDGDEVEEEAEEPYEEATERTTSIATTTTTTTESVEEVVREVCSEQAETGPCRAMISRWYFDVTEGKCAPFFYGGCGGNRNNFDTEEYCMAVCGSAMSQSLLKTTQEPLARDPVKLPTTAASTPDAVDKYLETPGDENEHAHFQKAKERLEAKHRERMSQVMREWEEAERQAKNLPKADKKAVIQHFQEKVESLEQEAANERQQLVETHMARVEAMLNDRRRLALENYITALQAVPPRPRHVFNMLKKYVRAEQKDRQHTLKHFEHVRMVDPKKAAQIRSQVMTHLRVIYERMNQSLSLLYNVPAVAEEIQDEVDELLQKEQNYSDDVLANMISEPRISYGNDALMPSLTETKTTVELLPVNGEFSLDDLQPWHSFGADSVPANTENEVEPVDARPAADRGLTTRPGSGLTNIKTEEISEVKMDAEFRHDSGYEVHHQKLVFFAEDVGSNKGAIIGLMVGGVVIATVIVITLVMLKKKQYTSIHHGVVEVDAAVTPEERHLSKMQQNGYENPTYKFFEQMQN
UniProt Q9UJX4, whole entry, looked up: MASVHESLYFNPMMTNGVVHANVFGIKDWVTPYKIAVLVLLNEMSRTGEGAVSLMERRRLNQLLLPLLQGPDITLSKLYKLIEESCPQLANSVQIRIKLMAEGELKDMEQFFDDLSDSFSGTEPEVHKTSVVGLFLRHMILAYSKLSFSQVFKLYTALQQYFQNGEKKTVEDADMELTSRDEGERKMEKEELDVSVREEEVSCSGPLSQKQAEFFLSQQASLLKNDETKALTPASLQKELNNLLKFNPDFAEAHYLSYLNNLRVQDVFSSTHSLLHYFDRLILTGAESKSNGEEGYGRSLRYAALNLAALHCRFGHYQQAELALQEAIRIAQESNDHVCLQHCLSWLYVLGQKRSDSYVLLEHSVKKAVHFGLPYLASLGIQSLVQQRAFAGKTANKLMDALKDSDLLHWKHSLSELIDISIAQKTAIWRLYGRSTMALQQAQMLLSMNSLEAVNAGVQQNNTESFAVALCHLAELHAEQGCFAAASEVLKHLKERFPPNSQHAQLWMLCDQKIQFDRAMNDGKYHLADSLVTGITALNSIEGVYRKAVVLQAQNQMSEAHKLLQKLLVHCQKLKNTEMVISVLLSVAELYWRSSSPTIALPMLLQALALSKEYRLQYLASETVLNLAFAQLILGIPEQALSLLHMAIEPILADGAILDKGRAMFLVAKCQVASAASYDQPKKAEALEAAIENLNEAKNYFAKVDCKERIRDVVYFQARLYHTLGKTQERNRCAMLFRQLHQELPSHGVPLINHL
UniProt Q63HQ0: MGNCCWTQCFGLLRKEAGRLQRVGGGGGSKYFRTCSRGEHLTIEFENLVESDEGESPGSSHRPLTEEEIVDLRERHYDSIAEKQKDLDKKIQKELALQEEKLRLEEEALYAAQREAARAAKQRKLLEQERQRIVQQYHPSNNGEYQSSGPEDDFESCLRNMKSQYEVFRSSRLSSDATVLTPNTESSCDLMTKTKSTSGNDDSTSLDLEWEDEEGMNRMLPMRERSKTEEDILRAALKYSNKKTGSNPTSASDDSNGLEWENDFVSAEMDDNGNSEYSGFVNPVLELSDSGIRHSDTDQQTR
UniProt P08133: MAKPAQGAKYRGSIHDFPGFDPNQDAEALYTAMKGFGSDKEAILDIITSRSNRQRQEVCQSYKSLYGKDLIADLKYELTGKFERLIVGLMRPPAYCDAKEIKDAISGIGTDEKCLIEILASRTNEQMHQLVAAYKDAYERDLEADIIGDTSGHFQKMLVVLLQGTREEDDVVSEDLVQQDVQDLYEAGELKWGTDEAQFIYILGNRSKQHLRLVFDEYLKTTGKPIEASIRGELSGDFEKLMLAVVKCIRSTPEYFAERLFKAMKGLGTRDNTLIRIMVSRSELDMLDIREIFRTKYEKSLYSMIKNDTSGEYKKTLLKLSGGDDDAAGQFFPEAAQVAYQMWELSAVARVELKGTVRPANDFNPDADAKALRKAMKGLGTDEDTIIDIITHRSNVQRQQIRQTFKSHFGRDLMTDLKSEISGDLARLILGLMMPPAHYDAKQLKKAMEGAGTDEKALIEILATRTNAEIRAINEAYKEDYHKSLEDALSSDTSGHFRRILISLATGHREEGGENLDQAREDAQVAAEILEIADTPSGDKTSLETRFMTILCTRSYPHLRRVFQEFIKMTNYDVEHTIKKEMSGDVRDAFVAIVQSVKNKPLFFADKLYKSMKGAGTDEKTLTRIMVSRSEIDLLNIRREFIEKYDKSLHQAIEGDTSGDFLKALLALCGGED
UniProt P61204: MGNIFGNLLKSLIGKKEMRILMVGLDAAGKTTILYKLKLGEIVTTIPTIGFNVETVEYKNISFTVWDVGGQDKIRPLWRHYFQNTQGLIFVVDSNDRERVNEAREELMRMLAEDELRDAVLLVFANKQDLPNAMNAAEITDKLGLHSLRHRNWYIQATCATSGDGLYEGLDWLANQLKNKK
UniProt Q9BZZ5: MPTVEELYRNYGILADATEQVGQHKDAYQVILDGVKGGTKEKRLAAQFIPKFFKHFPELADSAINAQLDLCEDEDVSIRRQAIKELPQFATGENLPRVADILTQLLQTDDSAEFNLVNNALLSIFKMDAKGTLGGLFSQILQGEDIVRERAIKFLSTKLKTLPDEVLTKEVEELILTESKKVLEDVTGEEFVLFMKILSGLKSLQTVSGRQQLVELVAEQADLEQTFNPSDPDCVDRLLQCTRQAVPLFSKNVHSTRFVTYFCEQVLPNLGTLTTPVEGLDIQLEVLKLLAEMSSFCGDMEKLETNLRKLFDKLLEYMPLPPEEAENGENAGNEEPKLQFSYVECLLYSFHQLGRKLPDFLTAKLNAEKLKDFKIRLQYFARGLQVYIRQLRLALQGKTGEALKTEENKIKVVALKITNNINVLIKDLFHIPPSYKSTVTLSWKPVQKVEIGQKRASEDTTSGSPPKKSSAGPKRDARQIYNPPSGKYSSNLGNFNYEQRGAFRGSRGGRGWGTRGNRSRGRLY

Legend:
Test in all cases: log2 fold change, soluble protein after heating vs DMSO (PISA); higher = thermal stabilisation; K562 cells, 10 uM, 30 min; active = over 0.2 and 3.5 SD of the protein, either way, in both replicates (recomputed)
[1] = compound: CC[C@@H]1C(=O)N(C)c2cnc(Nc3ccc(C(=O)NC4CCN(C)CC4)cc3OC)nc2N1C1CCCC1
Procedure, shortened: (§1)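 K562 cells (2×10^6 cells/mL) were treated with 10 μM compound for 30 min, and aliquots were heated for 3 min over 48°C-58°C. Pooled aliquots were extracted in PBS with 0.5% NP-40 at 4°C, and the supernatant after 21,000xg for 90 min was measured by TMTpro 16plex LC-MS/MS with channel sums equalised. Reported thermal stability, relative to control samples and from duplicates, is a log2 fold change.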

volasertib = compound: CC[C@@H]1C(=O)N(C)c2cnc(Nc3ccc(C(=O)N[C@H]4CC[C@H](N5CCN(CC6CC6)CC5)CC4)cc3OC)nc2N1C(C)C [volasertib]
Procedure, shortened: as §1

[2] = compound: CC[C@H](C)N1C=C(C2=C(C=C(C=C21)C3=CN=C(C=C3)N4CCNCC4)C(=O)NCC5=C(C=C(NC5=O)C)C)C
Procedure, shortened: as §1

epoxomicin = compound: CC[C@H](C)[C@@H](C(=O)N[C@@H]([C@@H](C)O)C(=O)N[C@@H](CC(C)C)C(=O)[C@]1(CO1)C)NC(=O)[C@H]([C@@H](C)CC)N(C)C(=O)C [epoxomicin]
Procedure, shortened: as §1

[3] = compound: CCn1c(C(=O)N(C2CC2)C2CC2)cc2c3c(ncn3C)c(Nc3cc(C)n(C)n3)nc21
Procedure, shortened: as §1

[4] = compound: CCn1cc(-c2ccnc3[nH]c(-c4cccc(CN(C)C)c4)cc23)c(-c2ccc(NC(=O)N(C)C)cc2)n1
Procedure, shortened: as §1

[5] = compound: CN(C)CC(=O)Nc1ccc2[nH]c(=O)c3ccccc3c2c1
Procedure, shortened: as §1

rosiglitazone = compound: CN(CCOC1=CC=C(C=C1)C[C@H]2C(=O)NC(=O)S2)C3=CC=CC=N3 (racemic) [rosiglitazone]
Procedure, shortened: as §1

[6] = compound: CN1C2=C(C3=C1C(=O)N(N=C3)CC4=CC(=CC=C4)N)SC(=C2)S(=O)C
Procedure, shortened: as §1

[7] = compound: CN1CCC(CNc2ccc3ncc(-c4cccc(OC(F)(F)F)c4)n3n2)CC1
Procedure, shortened: as §1

Measured: log2 fold change

APOOL (UniProt Q6UXV4)
inactive: [1] 0.01 | volasertib 0.034 | [2] -0.056 | epoxomicin -0.042 | [3] 0.018 | [4] -0.007 | [5] -0.049 | rosiglitazone -0.012 | [6] -0.029 | [7] 0.009

ANP32B (UniProt Q92688)
inactive: [1] -0.052 | volasertib -0.095 | [2] 0.007 | epoxomicin -0.014 | [3] 0.001 | [4] -0.027 | [5] 0.016 | rosiglitazone 0.037 | [6] -0.058 | [7] -0.066

ARFGAP3 (UniProt Q9NP61)
inactive: [1] -0.074 | volasertib -0.026 | [2] 0.055 | epoxomicin 0.04 | [3] -0.021 | [4] 0.004 | [5] 0.01 | rosiglitazone 0.045 | [6] -0.031 | [7] 0.024

AP1S1 (UniProt P61966)
inactive: [1] -0.014 | volasertib -0.175 | [2] 0.016 | epoxomicin -0.025 | [3] -0.042 | [4] 0.03 | [5] 0.029 | rosiglitazone 0.064 | [6] -0.054 | [7] -0.046

ANXA1 (UniProt P04083)
inactive: [1] -0.114 | volasertib -0.193 | [2] 0.047 | epoxomicin 0.102 | [3] -0.038 | [4] -0.046 | [5] 0.036 | rosiglitazone 0.071 | [6] -0.001 | [7] -0.18

ANXA4 (UniProt P09525)
inactive: [1] -0.053 | volasertib -0.053 | [2] 0.053 | epoxomicin 0.024 | [3] -0.079 | [4] 0.002 | [5] 0.058 | rosiglitazone 0.039 | [6] 0.094 | [7] -0.146

APOBR (UniProt Q0VD83)
inactive: [1] 0.015 | volasertib 0.045 | [2] -0.014 | epoxomicin 0.008 | [3] 0.013 | [4] 0.009 | [5] -0.07 | rosiglitazone -0.014 | [6] -0.034 | [7] 0.025

ANXA2 isoform 2 (UniProt P07355)
inactive: [1] -0.029 | volasertib -0.012 | [2] 0.065 | epoxomicin 0.039 | [3] 0.019 | [4] -0.052 | [5] 0.008 | rosiglitazone 0.017 | [6] -0.048 | [7] 0.044

AP3D1 isoform 5 (UniProt O14617)
inactive: [1] -0.032 | volasertib -0.156 | [2] 0.005 | epoxomicin -0.007 | [3] -0.028 | [4] -0.035 | [5] 0.048 | rosiglitazone 0.052 | [6] 0.024 | [7] -0.173

AP3M1 (UniProt Q9Y2T2)
inactive: [1] -0.039 | volasertib -0.111 | [2] 0.041 | epoxomicin 0.016 | [3] -0.026 | [4] -0.018 | [5] 0.054 | rosiglitazone 0.071 | [6] -0.007 | [7] -0.06

ANKRD46 (UniProt Q86W74)
inactive: [1] 0.133 | volasertib -0.096 | [2] 0.069 | epoxomicin 0.153 | [3] -0.232 | [4] 0.06 | [5] -0.036 | rosiglitazone 0.049 | [6] -0.021 | [7] 0.12

ARHGEF2 (UniProt Q92974)
inactive: [1] 0.125 | volasertib -0.042 | [2] 0.133 | epoxomicin -0.304 | [3] -0.055 | [4] 0.162 | [5] 0.045 | rosiglitazone -0.052 | [6] 0.469 | [7] 0.071

APEH (UniProt P13798)
inactive: [1] 0.039 | volasertib 0.024 | [2] -0.033 | epoxomicin -0.005 | [3] 0.045 | [4] 0.018 | [5] -0.006 | rosiglitazone 0.004 | [6] -0.041 | [7] -0.025

ANKMY2 (UniProt Q8IV38)
inactive: [1] -0.05 | volasertib -0.17 | [2] 0.048 | epoxomicin 0.067 | [3] -0.027 | [4] -0.064 | [5] 0.005 | rosiglitazone 0.065 | [6] -0.058 | [7] 0.047

AP1M1 (UniProt Q9BXS5)
inactive: [1] -0.008 | volasertib -0.121 | [2] 0.013 | epoxomicin -0.034 | [3] -0.001 | [4] -0.004 | [5] 0.011 | rosiglitazone -0.004 | [6] -0.01 | [7] -0.034

ANK1 isoform 14 (UniProt P16157)
inactive: [1] 0.153 | volasertib -0.103 | [2] 0.022 | epoxomicin -0.175 | [3] 0.034 | [4] 0.198 | [5] 0.021 | rosiglitazone 0.064 | [6] 0.366 | [7] -0.044

ANKRD13A (UniProt Q8IZ07)
inactive: [1] 0.082 | volasertib -0.158 | [2] -0.025 | epoxomicin 0.03 | [3] 0.033 | [4] -0.008 | [5] 0.023 | rosiglitazone -0.02 | [6] 0.035 | [7] 0.021

ANP32A (UniProt P39687)
inactive: [1] -0.067 | volasertib -0.083 | [2] -0.007 | epoxomicin 0.04 | [3] 0.003 | [4] 0.01 | [5] 0.033 | rosiglitazone 0.046 | [6] -0.091 | [7] -0.016

ARHGEF1 isoform 3 (UniProt Q92888)
inactive: [1] -0.063 | volasertib -0.276 | [2] -0.006 | epoxomicin -0.029 | [3] -0.144 | [4] 0.078 | [5] 0.046 | rosiglitazone 0.076 | [6] 0.13 | [7] -0.023

Quoted from above (9 entries):
AP3D1 isoform 5 (UniProt O14617)
inactive: [1] -0.032 | volasertib -0.156 | [2] 0.005 | epoxomicin -0.007 | [3] -0.028 | [4] -0.035 | [5] 0.048 | rosiglitazone 0.052 | [6] 0.024 | [7] -0.173

AP3M1 (UniProt Q9Y2T2)
inactive: [1] -0.039 | volasertib -0.111 | [2] 0.041 | epoxomicin 0.016 | [3] -0.026 | [4] -0.018 | [5] 0.054 | rosiglitazone 0.071 | [6] -0.007 | [7] -0.06

ANKRD46 (UniProt Q86W74)
inactive: [1] 0.133 | volasertib -0.096 | [2] 0.069 | epoxomicin 0.153 | [3] -0.232 | [4] 0.06 | [5] -0.036 | rosiglitazone 0.049 | [6] -0.021 | [7] 0.12

ARHGEF2 (UniProt Q92974)
inactive: [1] 0.125 | volasertib -0.042 | [2] 0.133 | epoxomicin -0.304 | [3] -0.055 | [4] 0.162 | [5] 0.045 | rosiglitazone -0.052 | [6] 0.469 | [7] 0.071

APEH (UniProt P13798)
inactive: [1] 0.039 | volasertib 0.024 | [2] -0.033 | epoxomicin -0.005 | [3] 0.045 | [4] 0.018 | [5] -0.006 | rosiglitazone 0.004 | [6] -0.041 | [7] -0.025

ANKMY2 (UniProt Q8IV38)
inactive: [1] -0.05 | volasertib -0.17 | [2] 0.048 | epoxomicin 0.067 | [3] -0.027 | [4] -0.064 | [5] 0.005 | rosiglitazone 0.065 | [6] -0.058 | [7] 0.047

AP1M1 (UniProt Q9BXS5)
inactive: [1] -0.008 | volasertib -0.121 | [2] 0.013 | epoxomicin -0.034 | [3] -0.001 | [4] -0.004 | [5] 0.011 | rosiglitazone -0.004 | [6] -0.01 | [7] -0.034

ANK1 isoform 14 (UniProt P16157)
inactive: [1] 0.153 | volasertib -0.103 | [2] 0.022 | epoxomicin -0.175 | [3] 0.034 | [4] 0.198 | [5] 0.021 | rosiglitazone 0.064 | [6] 0.366 | [7] -0.044

ANKRD13A (UniProt Q8IZ07)
inactive: [1] 0.082 | volasertib -0.158 | [2] -0.025 | epoxomicin 0.03 | [3] 0.033 | [4] -0.008 | [5] 0.023 | rosiglitazone -0.02 | [6] 0.035 | [7] 0.021

(next part)

ARIH1 (UniProt Q9Y4X5)
inactive: [1] -0.021 | volasertib -0.036 | [2] -0.018 | epoxomicin 0.032 | [3] 0.004 | [4] -0.025 | [5] -0.023 | rosiglitazone 0.003 | [6] -0.059 | [7] -0.03

APP (UniProt P05067)
inactive: [1] -0.139 | volasertib -0.156 | [2] -0.067 | epoxomicin 0.077 | [3] 0.094

ARHGAP45 isoform 2 (UniProt Q92619)
inactive: [1] 0.003 | volasertib -0.085 | [2] -0.155 | epoxomicin -0.056 | [3] 0.028 | [4] 0.004 | [5] -0.048 | rosiglitazone 0.114 | [6] 0.07 | [7] 0.074

ANAPC5 (UniProt Q9UJX4)
inactive: [1] 0.021 | volasertib -0.149 | [2] 0.042 | epoxomicin 0.03 | [3] 0.003 | [4] 0.017 | [5] 0.005 | rosiglitazone -0.008 | [6] 0.021 | [7] 0.011

AP1AR (UniProt Q63HQ0)
inactive: [1] 0.011 | volasertib 0.027 | [2] 0.021 | epoxomicin 0.029 | [3] 0.059 | [4] -0.086 | [5] -0.023 | rosiglitazone -0.023 | [6] 0.078 | [7] 0.013

ANXA6 (UniProt P08133)
inactive: [1] -0.021 | volasertib -0.108 | [2] 0.039 | epoxomicin -0.003 | [3] -0.005 | [4] 0.228 | [5] 0.043 | rosiglitazone 0.024 | [6] 0 | [7] -0.035

ARF3 (UniProt P61204)
inactive: [1] 0.079 | volasertib 0.032 | [2] -0.039 | epoxomicin -0.039 | [3] 0.002 | [4] -0.023 | [5] -0.009 | rosiglitazone 0.004 | [6] -0.061 | [7] 0.03

APOBEC3C (UniProt Q9NRW3)
inactive: [1] 0.131 | volasertib 0.175 | [2] 0.021 | epoxomicin -0.198 | [3] -0.049 | [4] 0.077 | [5] -0.091 | rosiglitazone -0.114 | [6] 0.188 | [7] 0.24

ANKRD54 (UniProt Q6NXT1)
inactive: [1] 0.014 | volasertib -0.181 | [2] 0.09 | epoxomicin 0.019 | [3] 0.021 | [4] -0.109 | [5] 0.149 | rosiglitazone 0.046 | [6] -0.2 | [7] 0

ARID1A (UniProt O14497)
inactive: [1] 0.064 | volasertib -0.123 | [2] -0.12 | epoxomicin -0.088 | [3] -0.082 | [4] -0.024 | [5] 0.104 | rosiglitazone -0.03 | [6] 0.278 | [7] -0.05

API5 isoform 2 (UniProt Q9BZZ5)
inactive: [1] -0.073 | volasertib -0.011 | [2] 0.077 | epoxomicin 0.06 | [3] -0.106 | [4] -0.151 | [5] 0.006 | rosiglitazone 0.002 | [6] -0.091 | [7] -0.122
